Source: patent US20190216830A1, “OPHTHALMIC COMPOSITIONS” (Aciont Inc., priority 2017, published 2019)

Experiment: Cmax after IV injection of 1 mg DSP in rabbit
Type: in vivo

SMILES: C[C@@H]1C[C@H]2[C@@H]3CCC4=CC(=O)C=C[C@]4(C)[C@@]3(F)[C@@H](O)C[C@]2(C)[C@@]1(O)C(=O)COP(=O)(O)O [DSP, Dexamethasone sodium phosphate]
- Cmax of DSP for rabbit relative to human: approximately 75 times
